Measured values taken from publication PMC6553684.
Results are given in words; binding and its absence hold for the method and conditions named. In cells and extracts the contact can be indirect. Some binding calls cover weakened binding; strength is not graded here. For some assays here: Tags and fused reporters may be left off the sequences shown. Blank lines part the entries; values can stand above or below the molecule they belong to.

Amino acid sequences for entries named in this document (tags omitted).
UniProt Q9XYZ5: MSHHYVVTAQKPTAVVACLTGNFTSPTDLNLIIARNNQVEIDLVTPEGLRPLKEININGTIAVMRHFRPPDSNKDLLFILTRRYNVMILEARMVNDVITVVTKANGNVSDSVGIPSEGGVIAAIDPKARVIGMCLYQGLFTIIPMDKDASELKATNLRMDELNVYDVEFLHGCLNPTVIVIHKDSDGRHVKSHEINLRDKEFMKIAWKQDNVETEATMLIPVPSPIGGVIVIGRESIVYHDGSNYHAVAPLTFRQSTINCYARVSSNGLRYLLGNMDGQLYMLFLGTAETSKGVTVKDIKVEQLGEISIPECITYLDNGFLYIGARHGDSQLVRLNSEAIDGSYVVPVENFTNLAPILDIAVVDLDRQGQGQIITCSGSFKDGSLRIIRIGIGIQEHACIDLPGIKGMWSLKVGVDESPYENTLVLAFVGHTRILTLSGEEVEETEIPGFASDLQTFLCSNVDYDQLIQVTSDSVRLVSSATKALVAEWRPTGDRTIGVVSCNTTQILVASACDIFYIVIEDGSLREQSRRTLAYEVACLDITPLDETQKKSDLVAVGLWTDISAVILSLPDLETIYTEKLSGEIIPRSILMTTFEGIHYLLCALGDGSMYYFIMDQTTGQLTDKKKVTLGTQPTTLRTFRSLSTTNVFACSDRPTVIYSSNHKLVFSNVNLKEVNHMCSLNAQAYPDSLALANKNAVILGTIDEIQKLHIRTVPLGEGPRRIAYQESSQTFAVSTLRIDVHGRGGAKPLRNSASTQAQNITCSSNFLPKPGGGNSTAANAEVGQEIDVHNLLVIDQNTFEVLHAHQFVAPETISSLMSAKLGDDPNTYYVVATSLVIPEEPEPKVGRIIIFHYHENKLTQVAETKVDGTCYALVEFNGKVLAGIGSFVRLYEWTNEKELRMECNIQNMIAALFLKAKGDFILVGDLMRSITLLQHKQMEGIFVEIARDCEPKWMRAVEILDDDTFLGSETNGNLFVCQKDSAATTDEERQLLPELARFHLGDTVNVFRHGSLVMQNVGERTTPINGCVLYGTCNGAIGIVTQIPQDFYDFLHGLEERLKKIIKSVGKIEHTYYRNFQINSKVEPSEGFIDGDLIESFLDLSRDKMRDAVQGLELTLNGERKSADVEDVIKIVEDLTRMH

Columns and labels:
[1] = target: T1, Myc-Wts (Drosophila) (UniProt Q9VA38); test: co-IP; S2 cells cotransfected with two differently tagged constructs; IP by one tag, western blot (Fig 4C, 4D, 4E, S4E)
T1 sequence: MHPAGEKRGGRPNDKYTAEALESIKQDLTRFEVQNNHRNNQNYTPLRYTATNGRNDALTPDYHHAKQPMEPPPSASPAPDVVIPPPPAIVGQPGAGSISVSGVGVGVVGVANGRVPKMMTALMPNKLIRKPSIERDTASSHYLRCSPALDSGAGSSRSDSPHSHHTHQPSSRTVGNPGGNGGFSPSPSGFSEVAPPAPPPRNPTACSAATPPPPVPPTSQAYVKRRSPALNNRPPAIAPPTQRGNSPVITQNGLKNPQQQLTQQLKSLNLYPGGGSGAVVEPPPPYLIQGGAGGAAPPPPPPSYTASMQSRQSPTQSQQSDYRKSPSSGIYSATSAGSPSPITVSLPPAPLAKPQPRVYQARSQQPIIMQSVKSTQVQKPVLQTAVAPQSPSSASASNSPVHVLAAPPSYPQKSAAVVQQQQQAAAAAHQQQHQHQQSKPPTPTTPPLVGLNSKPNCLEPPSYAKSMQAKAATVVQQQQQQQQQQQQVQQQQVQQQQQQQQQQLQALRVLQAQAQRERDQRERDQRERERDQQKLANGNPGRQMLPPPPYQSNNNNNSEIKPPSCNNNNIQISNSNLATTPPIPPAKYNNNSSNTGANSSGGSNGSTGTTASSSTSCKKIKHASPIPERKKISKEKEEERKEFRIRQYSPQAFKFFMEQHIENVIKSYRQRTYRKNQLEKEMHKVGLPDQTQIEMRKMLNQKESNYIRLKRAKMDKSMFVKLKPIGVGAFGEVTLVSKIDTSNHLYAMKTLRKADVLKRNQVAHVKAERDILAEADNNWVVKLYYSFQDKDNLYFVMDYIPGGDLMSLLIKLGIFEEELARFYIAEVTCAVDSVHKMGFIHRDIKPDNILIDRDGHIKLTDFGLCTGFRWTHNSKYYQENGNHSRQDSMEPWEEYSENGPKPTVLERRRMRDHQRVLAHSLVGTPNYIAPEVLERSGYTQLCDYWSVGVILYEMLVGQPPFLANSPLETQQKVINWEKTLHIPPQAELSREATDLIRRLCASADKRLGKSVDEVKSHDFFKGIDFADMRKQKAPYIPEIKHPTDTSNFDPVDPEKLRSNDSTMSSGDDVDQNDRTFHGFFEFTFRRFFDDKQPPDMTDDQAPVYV

[2] = target: Venus-Mahj (Drosophila melanogaster) (UniProt Q9W2F2); test: co-IP; S2 cells cotransfected with Flag-Cul4, Myc-DDB1 and Venus-Mahj; IP of Flag, Myc or GFP (Venus), western blot; lanes with and without overexpressed Myc-DDB1
[3] = target: T2, Flag-Wts^FL (Drosophila) (UniProt Q9VA38); test: co-IP; S2 cells cotransfected with two differently tagged constructs; IP by one tag, western blot (Fig 4C, 4D, 4E, S4E)
T2 sequence: T1 sequence

[4] = target: Venus-DDB1 (Drosophila melanogaster) (UniProt Q9XYZ5); test: as above
[5] = target: Myc-DDB1 (Drosophila melanogaster) (UniProt Q9XYZ5); test: co-IP; S2 cells cotransfected with Flag-Cul4, Myc-DDB1 and Venus-Mahj; IP of Flag, Myc or GFP (Venus), western blot; lanes with and without overexpressed Myc-DDB1
[6] = target: Myc-Mahj^FL (Drosophila melanogaster) (UniProt Q9W2F2); test: co-IP; S2 cells cotransfected with two differently tagged constructs; IP by one tag, western blot (Fig 4C, 4D, 4E, S4E)
[7] = target: Venus-DDB1 (Drosophila melanogaster) (UniProt Q9XYZ5); test: co-IP; S2 cells expressing Venus-DDB1, Myc-Wts and HA-Mahj^C-term; IP of Venus-DDB1, western blot

Molecule: Flag-Mahj^FL (from UniProt Q9W2F2 1-1544)
binding [1]: binds

Molecule: Flag-Mahj^R1120/1123E (from UniProt Q9W2F2 1-1544)
binding [1]: binds

Molecule: Flag-Mahj^R1307/R1343A (from UniProt Q9W2F2 1-1544)
binding [1]: binds

Molecule: Myc-DDB1 (from UniProt Q9XYZ5 1-1140)
binding [2]: binds

Molecule: Myc-Mahj^FL (from UniProt Q9W2F2 1-1544)
binding [3]: binds
binding [4]: binds

Molecule: Venus-Mahj (from UniProt Q9W2F2 1-1544)
binding [5]: binds

B2: Flag-Mahj^C-term (domain or fragment, UniProt Q9W2F2 1096-1544)
chain: LYEPHKCPDPKPSRLLSSNYNLTSRHARTQAGFNTSRFDRRYVHTHFSPWRSIRSADYEDLEFTCCDLAGKYIIVGTQQGDGRVFNMNDGVEQFFSNCHNFSVDAIKANRAGDLVITSSFWRTPTSILWSIADDEFKLKLRLPDVTYCEFSQTVQDRLLGTQNECATLFDINTGSKVASFTPTIPNLYTKNRATLCRTDELILSDGVLWDVRSGKEIHKFDKFNQCISGVFHPNCLEIIANTEVWDLRTFHLLQTVPVLDQRNCTFSPMHVIYGASLGADRDHDMETTTYDTSFNVLDAYDYSSIATIDVKRNINDLSVSANGSLIAVVEDYSGYESKQETYVKIYAVGVKKSERSEEEDDEEVPESDEDGSDTGSENTFAIGQNLLGFPLLRNLHGSDNDDEDLDEDDDDGEPLDSDDDSDDDDGSDNGDDDGDFDVLEYFDRSSSDD
binding [1]: binds

B4: Myc-Mahj^C-term (domain or fragment, UniProt Q9W2F2 1096-1544)
chain: B2 chain
binding [4]: binds

B7: Myc-Mahj^HLH+WD40 (domain or fragment, UniProt Q9W2F2 1096-1447)
chain: LYEPHKCPDPKPSRLLSSNYNLTSRHARTQAGFNTSRFDRRYVHTHFSPWRSIRSADYEDLEFTCCDLAGKYIIVGTQQGDGRVFNMNDGVEQFFSNCHNFSVDAIKANRAGDLVITSSFWRTPTSILWSIADDEFKLKLRLPDVTYCEFSQTVQDRLLGTQNECATLFDINTGSKVASFTPTIPNLYTKNRATLCRTDELILSDGVLWDVRSGKEIHKFDKFNQCISGVFHPNCLEIIANTEVWDLRTFHLLQTVPVLDQRNCTFSPMHVIYGASLGADRDHDMETTTYDTSFNVLDAYDYSSIATIDVKRNINDLSVSANGSLIAVVEDYSGYESKQETYVKIYAVGVKK
binding [4]: binds

Further lines, results first:

binding [6]: binds
B1: Flag-Wts^Kinase (domain or fragment, UniProt Q9VA38 719-1020)
chain: FVKLKPIGVGAFGEVTLVSKIDTSNHLYAMKTLRKADVLKRNQVAHVKAERDILAEADNNWVVKLYYSFQDKDNLYFVMDYIPGGDLMSLLIKLGIFEEELARFYIAEVTCAVDSVHKMGFIHRDIKPDNILIDRDGHIKLTDFGLCTGFRWTHNSKYYQENGNHSRQDSMEPWEEYSENGPKPTVLERRRMRDHQRVLAHSLVGTPNYIAPEVLERSGYTQLCDYWSVGVILYEMLVGQPPFLANSPLETQQKVINWEKTLHIPPQAELSREATDLIRRLCASADKRLGKSVDEVKSHDFF

binding [7]: binds
B3: HA-Mahj^C-term (domain or fragment, UniProt Q9W2F2 1096-1544)
chain: B2 chain

binding [6]: binds
B5: Flag-Wts^FL (protein, UniProt Q9VA38 1-1105)
chain: T1 sequence

binding [1]: binds
B6: Flag-Mahj^HLH+WD40 (domain or fragment, UniProt Q9W2F2 1096-1447)
chain: B7 chain
